Measured data: PubChem BioAssay AID720505 (Drosophila RNAi Screening Center, 2013)
The screen tested about 20,000 reagents; shown is an unselected part of those that have a named target and a result. Over the whole deposit, about 2,100 (10%) got an active call. 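Raw plate signals without normalisation; calls rest on control-based scores that were not deposited; replicate 2 separates called from uncalled poorly.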 A number with no mark means an inactive call. Names joined by + are all predicted targets of the reagent. Not given: the amount of reagent, the time to read-out.

- Aim: 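Fly regulators or components of the CRAC channel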 (primary screen)
- System: Drosophila S2R+ cells
- Reagents: long dsRNA against Drosophila genes
- Challenge: thapsigargin (2 µM) in calcium-free buffer to empty internal stores, then 2 mM calcium added back
- Measured: 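Fluo-4 signal in 384-well plates read on a FLIPR after thapsigargin (2 µM, calcium-free) store depletion and 2 mM calcium add-back; unnormalised mean endpoint per well; screen run twice, selected wells retested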
- Direction: calcium signal and retest calcium signal: higher = more calcium entry after store depletion
- Hit rule: 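Knock-downs counted as hits when calcium entry dropped relative to STIM1 positive and Rho1 negative controls present on each plate; roughly 1500 genes called, with reductions of differing size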
- Meaning of the calls: active = called as lowering calcium entry; inactive = not called

| target | amplicon | calcium signal, replicate 1 | calcium signal, replicate 2 | retest calcium signal, replicate 1 | retest calcium signal, replicate 2 |
| --- | --- | --- | --- | --- | --- |
| CG13869 + CG11099 | DRSC06428 | 127 | 114 | – | – |
| dup (GeneID 47121) | DRSC07088 | 41.7 (active) | 145 | – | – |
| CG15201 (GeneID 32053) | DRSC19648 | 54.7 (active) | 108 | – | – |
| CG14629 (GeneID 31055) | DRSC18476 | 91.3 | 112 | – | – |
| Hml (GeneID 39529) | DRSC11183 | 125 | 109 | – | – |
| Pc (GeneID 40358) | DRSC11873 | 82.5 | 162 | – | – |
| CCT2 (GeneID 31838) | DRSC18415 | 182 | 123 | – | – |
| Tbc1d8-9 (GeneID 40361) | DRSC11820 | 116 | 81.7 | – | – |
| Sgs1 (GeneID 33701) | DRSC00787 | 71.7 (active) | 148 | – | – |
| Sgs1 (GeneID 33701) | DRSC00848 | 66.8 (active) | 147 | – | – |
| CG10418 (GeneID 39408) | DRSC09720 | 119 | 118 | – | – |
| Uro (GeneID 34060) | DRSC03469 | 61.3 (active) | 80.1 | – | – |
| Hsp60B (GeneID 48572) | DRSC00542 | 156 | 228 | – | – |
| Vha13 (GeneID 42341) | DRSC16895 | 156 | 133 | – | – |
| fest (GeneID 37220) | DRSC07349 | 110 | 107 | – | – |
| CG31627 (GeneID 318860) | DRSC22143 | 93.3 | 162 | – | – |
| pgc (GeneID 5740599) | DRSC04099 | 191 | 80.9 | – | – |
| qtc (GeneID 33739) | DRSC02364 | 114 | 211 | – | – |
| qtc (GeneID 33739) | DRSC02365 | 154 | 87.8 | – | – |
| CG6470 (GeneID 32840) | DRSC19994 | 154 | 135 | – | – |
| Nxf3 (GeneID 317878) | DRSC21749 | 142 | 138 | – | – |
| Cyp6a13 (GeneID 35837) | DRSC07375 | 180 | 95 | – | – |
| Fmo-1 (GeneID 37814) | DRSC04328 | 144 | 128 | – | – |
| CG4830 (GeneID 41477) | DRSC15657 | 118 | 84.6 | – | – |
| Uxt (GeneID 34893) | DRSC01962 | 119 | 121 | – | – |
| CG32599 (GeneID 318108) | DRSC19433 | 100 | 68.1 | – | – |
| CG16799 (GeneID 37340) | DRSC06626 | 134 | 128 | – | – |
| CG16799 (GeneID 37340) | DRSC21553 | 135 | 69.4 | – | – |
| CG11076 (GeneID 43830) | DRSC17197 | 81.5 | 136 | – | – |
| fs(1)Yb (GeneID 31262) | DRSC18777 | 99.5 | 147 | – | – |
| CG12106 (GeneID 31856) | DRSC17805 | 60.4 (active) | 119 | – | – |
| CG42496 + Ppcdc | DRSC03886 | 5191 (active) | 97.7 | 8135 | 97.3 |
| aus (GeneID 42531) | DRSC15157 | 216 | 291 | – | – |
| Blos1 (GeneID 246439) | DRSC05970 | 119 | 137 | – | – |
| Hsp70Aa + Hsp70Ab | DRSC21246 | 191 | 82.4 | – | – |
| Dap160 (GeneID 35378) | DRSC01834 | 77 | 4005 | – | – |
| Dap160 (GeneID 35378) | DRSC03313 | 119 | 144 | – | – |
| l(1)G0020 (GeneID 31811) | DRSC18198 | 248 | 80 | – | – |
| eIF3g1 (GeneID 31243) | DRSC18427 | 102 | 86.4 | – | – |
| Act79B (GeneID 40444) | DRSC11604 | 90.5 | 125 | – | – |
| Nmd3 (GeneID 31195) | DRSC18687 | 139 | 181 | – | – |
| Nmd3 (GeneID 31195) | DRSC22834 | 123 | 119 | – | – |
| Elba2 (GeneID 33442) | DRSC00731 | 94.8 | 158 | – | – |
| CG14102 (GeneID 40156) | DRSC10103 | 84.6 | 121 | – | – |
| Uch-L5 (GeneID 39102) | DRSC11314 | 77.5 | 107 | – | – |
| CG30340 (GeneID 246550) | DRSC05167 | 129 | 125 | – | – |
| Notum (GeneID 39751) | DRSC09959 | 82.8 | 131 | – | – |
| CG7920 (GeneID 43562) | DRSC16346 | 118 | 193 | – | – |
| CG7920 (GeneID 43562) | DRSC21594 | 112 | 92.2 | – | – |
| CG42827 (GeneID 42763) | DRSC16116 | 3666 | 197 | 145 | 82.2 |
| PHDP (GeneID 37788) | DRSC04635 | 123 | 202 | – | – |
| CG5623 (GeneID 41904) | DRSC15848 | 132 | 126 | – | – |
| S-Lap1 (GeneID 38986) | DRSC10627 | 96.6 | 96.3 | – | – |
| Kr (GeneID 38012) | DRSC04622 | 103 | 116 | – | – |
| hbs (GeneID 44129) | DRSC07627 | 120 | 208 | – | – |
| RpS17 (GeneID 39088) | DRSC11271 | 33.3 (active) | 76.9 | – | – |
